Data reported in PMC3040602.

Protein sequences, listed by entry. Tags and fused reporters are not part of them. Lines headed by an entry give the natural chain unless they say otherwise; changes in a name come on top. Residues count along the entry.
UniProt Q15788, residues 595-780: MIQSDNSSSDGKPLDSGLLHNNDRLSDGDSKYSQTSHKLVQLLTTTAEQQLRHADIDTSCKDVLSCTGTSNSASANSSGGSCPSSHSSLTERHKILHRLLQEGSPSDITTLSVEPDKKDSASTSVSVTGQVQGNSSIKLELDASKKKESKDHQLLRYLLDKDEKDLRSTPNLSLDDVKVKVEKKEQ
UniProt P10828: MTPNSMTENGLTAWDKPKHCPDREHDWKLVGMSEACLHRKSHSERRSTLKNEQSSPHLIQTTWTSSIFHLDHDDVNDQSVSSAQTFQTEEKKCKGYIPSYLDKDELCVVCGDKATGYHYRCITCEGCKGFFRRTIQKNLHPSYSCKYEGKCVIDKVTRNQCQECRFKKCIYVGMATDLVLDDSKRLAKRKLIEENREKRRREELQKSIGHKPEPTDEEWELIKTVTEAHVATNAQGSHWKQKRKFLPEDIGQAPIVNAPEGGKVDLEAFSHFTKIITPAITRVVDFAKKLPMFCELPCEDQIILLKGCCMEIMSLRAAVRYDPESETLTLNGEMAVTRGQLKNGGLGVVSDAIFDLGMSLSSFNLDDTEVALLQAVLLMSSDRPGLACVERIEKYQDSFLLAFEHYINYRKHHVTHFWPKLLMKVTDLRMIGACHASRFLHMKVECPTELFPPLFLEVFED

Tests used:
[1] = biological target: T1, Gal4–N-CoR (nuclear receptor corepressor; aa 1579–2454) (UniProt Q60974); assay: two-hybrid; mammalian two-hybrid in CV-1 cells, Gal4-DBD fusion and VP16 fusion with 5× UAS-TK-LUC reporter; without T3, with or without BDE209
T1 sequence: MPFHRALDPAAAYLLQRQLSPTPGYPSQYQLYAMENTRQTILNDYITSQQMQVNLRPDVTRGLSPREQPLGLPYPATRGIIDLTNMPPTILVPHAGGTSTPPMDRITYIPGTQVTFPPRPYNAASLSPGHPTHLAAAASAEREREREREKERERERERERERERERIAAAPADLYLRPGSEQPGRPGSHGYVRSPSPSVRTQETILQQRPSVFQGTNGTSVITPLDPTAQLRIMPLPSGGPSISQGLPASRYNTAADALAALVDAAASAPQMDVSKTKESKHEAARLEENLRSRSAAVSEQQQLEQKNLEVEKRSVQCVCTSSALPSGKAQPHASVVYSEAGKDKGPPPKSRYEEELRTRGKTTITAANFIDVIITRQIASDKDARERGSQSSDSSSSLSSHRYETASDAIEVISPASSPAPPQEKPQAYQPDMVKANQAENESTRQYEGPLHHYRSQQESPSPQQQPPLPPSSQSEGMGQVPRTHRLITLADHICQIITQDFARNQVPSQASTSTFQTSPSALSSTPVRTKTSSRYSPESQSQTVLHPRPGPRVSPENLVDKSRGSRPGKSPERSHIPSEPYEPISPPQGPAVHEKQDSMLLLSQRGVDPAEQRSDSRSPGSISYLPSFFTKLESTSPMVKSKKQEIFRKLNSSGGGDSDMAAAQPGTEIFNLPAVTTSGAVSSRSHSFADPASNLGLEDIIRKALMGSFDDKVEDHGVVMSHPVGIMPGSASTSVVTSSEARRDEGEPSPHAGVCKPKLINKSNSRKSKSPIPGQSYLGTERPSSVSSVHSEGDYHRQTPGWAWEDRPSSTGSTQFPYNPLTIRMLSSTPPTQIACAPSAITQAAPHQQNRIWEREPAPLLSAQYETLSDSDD

[2] = biological target: Gal4–DNA binding domain (DBD)-fused steroid receptor coactivator-1–nuclear binding domain-1 (SRC-1–NBD-1; aa 595–780) (UniProt Q15788); assay: two-hybrid; mammalian two-hybrid in CV-1 cells, Gal4-DBD fusion and VP16 fusion with 5× UAS-TK-LUC reporter; with T3 (10^-7 M), with or without BDE209
[3] = biological target: T1, Gal4–N-CoR (nuclear receptor corepressor; aa 1579–2454); assay: as above

binding [1]: binds
binding [2]: binds
binding [3]: no binding (only with T3 (10^-7 M))
Substance: VP16-TRβ1–ligand binding domain (LBD) (from UniProt P10828) (domain or fragment)

These are yes or no findings as the source states them, for the method shown. For part of these data: A result given as binding can be weak or reduced; the word gives no strength.
